Data taken from PubChem BioAssay AID493014 (National Center for Advancing Translational Sciences (NCATS), 2011).
Out of some 340,000 compounds screened, about 170 (0.05%) were called active. Inconclusive means that the source gave no clear call. Such entries were picked first, then a sample of the others. Calls follow the shape of the dose curve; as a rule, active = well fitted inhibition curve with a large enough effect in the signal ratio, with a control signal flat (not every such curve was filed as active); inconclusive = small, poorly fitted or top-dose-only effect, or effect the other way, or a change in a side signal; inactive = flat fitted curve, though single readings scatter; the % refers to the signal ratio. Potencies of inconclusive entries are doubtful fits and often do not repeat.

Assay: qHTS Assay to Find Inhibitors of Chronic Active B-Cell Receptor Signaling;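 as to activity change, negative = inhibition: plate controls were basal doxycycline-induced cells for no effect and cells given 10 µM MG132 for full effect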
Conditions: ABC-DLBCL IkBa-CBG/CBR reporter, luminescence ratio (green luciferase fused to IkBa over red control in TMD8 lymphoma cells), 4 h; activity change, negative = inhibition: at 46.1 µM (top of the series)
Summary of the method: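 TMD8 human ABC-DLBCL cells with doxycycline-inducible IκBα–green luciferase fusion and unfused red luciferase, in 0.5% FBS medium; compounds up to 46 uM, 4 h at 37C. Green/red luminescence ratio, filter-overlap corrected, fitted to concentration-response curves.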
Potency is read from the fitted curve at half-maximal effect.

SMILES	activity change, negative = inhibition	Potency
C[C@@H]1NC(=O)[C@H](CCCN=C(N)N)NC(=O)c2cc([N+](=O)[O-])cc(I)c2NCCC[C@@H](C(N)=O)NC1=O	inconclusive: 6.87%	
O=C(NCCC1CCCCN1S(=O)(=O)c1ccccc1)C(=O)Nc1ccccc1 (stereo not given)		inconclusive: 5.8 µM [rising, partial curve, poor fit]
COc1cccc(-c2nc(CS(=O)(=O)CC(=O)NC3CCCCCC3)c(C)o2)c1	inactive: 1.22%	
CC(C)c1ccc(N2C(=O)[C@@H]3Cc4ccccc4CN3C2=O)cc1	inconclusive: 14.8%	
Cc1noc(C)c1CSc1cc(C)c2ccccc2n1		inconclusive: 25.1 µM [falling, single point]
CC(CN1CCOCC1)OC(=O)c1cccs1 (stereo not given)	inconclusive: 7.98%	
O=C1/C(=C/c2cccs2)Sc2ccccc21		inconclusive: 0.116 µM [falling, full curve, poor fit]
CCN1C(=O)[C@H]2[C@@H](c3ccc(C)cc3)N3C(=O)N(c4cccc(Cl)c4)C(=O)[C@@]3(CC(C)C)[C@H]2C1=O	inconclusive: 16%	
NS(=O)(=O)c1ccc(NC(=O)CCc2ccccc2)cc1	inconclusive: -2.14%	
COc1cccc(-c2cc(C(=O)Nc3cc(OC)c(OC)c(OC)c3)no2)c1		inconclusive: 20.6 µM [falling, partial curve]
COc1cc(CC(=O)NCCc2ccc(OCc3ccccc3)cc2)c([N+](=O)[O-])cc1OC		inconclusive: 3.66 µM [falling, full curve]
COc1ccccc1CC(=O)Nc1ccc([N+](=O)[O-])cc1O	inconclusive: 19.8%	
CCOc1ccc2nc(SCC(=O)Nc3cc(C)on3)c(C)cc2c1	inconclusive: -10.7%	
O=c1[nH]c2ccccc2n1C1CCCCC1	inconclusive: 10.6%	
CCOc1ccc(OCC)c(NC(=O)Cn2c(C)nc3ccccc3c2=O)c1		inconclusive: 11.2 µM [falling, partial curve, poor fit]
C[C@@H](C(=O)CC(=O)OC(C)(C)C)[C@@H](O)c1ccccc1	inactive: -7.78%	
O=C(C1COc2ccccc2O1)N1CCn2c(nc3ccccc32)C1 (stereo not given)		inconclusive: 14.6 µM [falling, partial curve, poor fit]
Cc1ccc(NC(=O)c2ccc(S(=O)(=O)N3CCCC3)cc2)nc1	inconclusive: 14.3%	
CCOC(=O)N/N=C/c1c(F)c(F)c(F)c(F)c1F	inconclusive: -9.74%	
COc1ccc(OC(C)C(=O)Nc2cccc(OC)c2)cc1 (stereo not given)		inconclusive: 29.1 µM [falling, single point]
